Results published in patent US20130225510A1, “METHODS FOR THE USE OF BRANCHED CHAIN AMINO ACIDS” (Nestec S.A., priority 2005, published 2013).
Peptide text beside a SMILES is read from it.

Experiment: taste test of bitterness, equal molar concentrations of dipeptide and free BCAA
Conditions: for bitterness compared with the free branched chain amino acid: equal molar concentrations
[1] = tasted after being added to a standard vanilla oral nutritional supplement
[2] = tasted after being dissolved in water

Row | SMILES | bitterness compared with the free branched chain amino acid [1] | bitterness compared with the free branched chain amino acid [2] | bitterness compared with RESOURCE Support (dissolved dipeptide vs nutritional product with approximately 3.2 g free leucine per 8 oz. serving)
1 | CC[C@H](C)[C@H](NC(=O)[C@H](C)N)C(=O)O [alanyl-isoleucine] (H-Ala-Ile-OH) | less bitterness than the free BCAA | less bitterness than the free BCAA | –
2 | CC(C)C[C@H](NC(=O)[C@H](C)N)C(=O)O [alanyl-leucine] (H-Ala-Leu-OH) | less bitterness than free leucine | less bitterness than free leucine | less bitterness than RESOURCE® Support®
3 | CC(C)[C@H](NC(=O)[C@H](C)N)C(=O)O [alanyl-valine] (H-Ala-Val-OH) | less bitterness than the free BCAA | less bitterness than the free BCAA | –
